Earlier results as cited in patent US20250177400A1, “METHODS OF THERAPEUTICS DEVELOPMENT OF GLIOBLASTOMA MULTIFORME BY QUINAZOLINE DERIVATIVES AND THEREOF” (priority 2023, published 2025).
At least one structure is not confirmed: it was looked up by name or label, or the drawing left a doubt.

System: Glioblastoma multiforme (GBM)
Details: GBM patients, cited from earlier work

Compound: Cn1nnc2c(C(N)=O)ncn2c1=O [TMZ, temozolomide]
- progression-free survival at 6 months (% of cases): 54%
- cases with no benefit from chemotherapy (Chamberlain, 2010): 60-75%
- overall survival: 14.6-16.1 months
